Data on one compound can be found in PubChem BioAssay AID218 (DTP/NCI, 2004).

The list shows only some results of the screen, not a fair sample: it gathers some chemical classes. Other doses and runs of a compound may be missing. T/C gives the treated animals as a percentage of the vehicle group. Some T/C values are marked as having no survivor count here; that says nothing about deaths at the dose. Schedules are NCI's codes, read here as Q, the interval in days (D) or hours (H), X, the number of doses.

This assay concerns C57BL/6 mice, Adenocarcinoma 755 sc, tumor weight T/C. The experiment in a line: NCI In Vivo Anticancer Drug Screen. Data for tumor model Adenocarcinoma 755 (subcutaneous) in C57BL/6 mice. Particulars: T/C endpoint: mean tumor weight, schedule: Q01DX011 (ip), vehicle: saline, evaluation day not shown, higher T/C = larger tumour. Here is the method: The antitumor activity of compounds was measured in mice bearing transplantable tumors. Survival or tumor size were measured and the results are expressed as the measurement made in the treated group (T) divided by the measurement made in the vehicle treated control group (C). The tumor model used in this assay is Adenocarcinoma 755 (subcutaneous) in C57BL/6 mice

With `CN(CCCl)CCCl`, the T/C is 85 % of control [survivor count not shown] (dose: 0.05 mg/kg/injection); 96 % of control [survivor count not shown] (dose: 0.13 mg/kg/injection); 70 % of control [survivor count not shown] (dose: 0.25 mg/kg/injection); 60 % of control [survivor count not shown] (dose: 0.5 mg/kg/injection); 46 % of control [survivor count not shown] (dose: 0.75 mg/kg/injection).
